Laboratory results from paper doi:10.1101/2024.04.03.587858.
Where two headings read alike, the source gives them in different places. Results are given in words; binding and its absence hold for the method and conditions named. Binding seen in cells or lysates may run through a third protein. Some results given as binding are weak or reduced against the parent protein; the word gives no strength. For part of these data: Sequences can lack the tags named with a protein.

Chains of the proteins cited; added tags and fusions are not shown. Lines headed by an entry give the natural chain unless they say otherwise; changes in a name come on top.
UniProt Q04207, whole entry: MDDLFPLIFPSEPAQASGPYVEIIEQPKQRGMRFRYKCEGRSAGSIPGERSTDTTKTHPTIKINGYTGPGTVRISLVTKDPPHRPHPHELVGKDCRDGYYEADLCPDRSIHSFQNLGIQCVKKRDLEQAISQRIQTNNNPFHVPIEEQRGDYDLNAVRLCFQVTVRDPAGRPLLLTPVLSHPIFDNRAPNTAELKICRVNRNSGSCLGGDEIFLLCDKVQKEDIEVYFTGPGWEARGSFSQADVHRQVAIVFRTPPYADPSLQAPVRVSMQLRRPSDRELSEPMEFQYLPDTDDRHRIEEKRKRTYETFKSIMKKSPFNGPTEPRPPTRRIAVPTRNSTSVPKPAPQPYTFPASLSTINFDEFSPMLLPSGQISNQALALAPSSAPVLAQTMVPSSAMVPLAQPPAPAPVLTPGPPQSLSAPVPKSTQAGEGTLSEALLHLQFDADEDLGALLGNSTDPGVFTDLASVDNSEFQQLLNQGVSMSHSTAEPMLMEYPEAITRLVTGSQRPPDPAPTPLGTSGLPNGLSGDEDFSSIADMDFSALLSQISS
UniProt O35343, whole entry: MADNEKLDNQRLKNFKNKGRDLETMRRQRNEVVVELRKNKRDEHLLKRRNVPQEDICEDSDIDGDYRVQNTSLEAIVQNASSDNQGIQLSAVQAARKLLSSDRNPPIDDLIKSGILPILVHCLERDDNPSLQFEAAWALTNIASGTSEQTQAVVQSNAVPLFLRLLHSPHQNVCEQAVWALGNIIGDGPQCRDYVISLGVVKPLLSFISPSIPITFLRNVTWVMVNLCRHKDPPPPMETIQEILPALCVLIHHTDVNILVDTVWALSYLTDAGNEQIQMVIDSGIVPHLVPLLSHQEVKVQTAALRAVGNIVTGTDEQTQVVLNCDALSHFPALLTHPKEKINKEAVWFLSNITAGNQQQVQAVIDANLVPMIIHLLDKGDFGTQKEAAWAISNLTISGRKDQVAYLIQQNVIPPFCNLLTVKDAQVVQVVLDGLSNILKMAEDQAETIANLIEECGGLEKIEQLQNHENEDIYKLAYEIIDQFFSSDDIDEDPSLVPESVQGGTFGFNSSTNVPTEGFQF
UniProt O35344, whole entry: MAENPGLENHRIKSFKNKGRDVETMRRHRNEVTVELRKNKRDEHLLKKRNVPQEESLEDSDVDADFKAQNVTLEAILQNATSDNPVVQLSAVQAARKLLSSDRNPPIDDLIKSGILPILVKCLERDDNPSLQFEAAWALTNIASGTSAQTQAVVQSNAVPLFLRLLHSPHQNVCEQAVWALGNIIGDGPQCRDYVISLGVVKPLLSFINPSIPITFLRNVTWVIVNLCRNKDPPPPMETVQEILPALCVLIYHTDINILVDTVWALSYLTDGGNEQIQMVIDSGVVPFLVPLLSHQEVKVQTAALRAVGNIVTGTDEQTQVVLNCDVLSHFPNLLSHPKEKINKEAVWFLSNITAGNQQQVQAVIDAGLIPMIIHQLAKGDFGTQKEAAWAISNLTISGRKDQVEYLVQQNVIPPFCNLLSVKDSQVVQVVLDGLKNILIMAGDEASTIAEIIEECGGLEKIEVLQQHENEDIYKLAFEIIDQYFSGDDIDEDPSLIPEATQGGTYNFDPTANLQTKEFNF

Experiments:
Assay in all cases: co-IP
[1] = target: Flag-P65 (mouse NF-kB p65, full length) (mouse) (UniProt Q04207)
[2] = target: Flag-P65^DM (K301R/K303R) (mouse) (UniProt Q04207)
[3] = target: Flag-P65 (mouse NF-kB p65, full length) (mouse) (UniProt Q04207); remark: listed apart in the source

Row | binding [1] | binding [2] | binding [3] | Molecule
1 | binds | binds |  | HA-importin α3 (from UniProt O35343 1-521)
2 | binds | binds |  | HA-importin α4 (from UniProt O35344 1-521)
3 |  |  | binds | Myc-HOIL-1 (enzyme, UniProt Q9WUB0 1-508) MDEKTKKAEEMALSLARAVAGGDEQAAIKYATWLAEQRVPLRVQVKPEVSPTQDIRLCVSVEDAYMHTVTIWLTVRPDMTVASLKDMVFLDYGFPPSLQQWVVGQRLARDQETLHSHGIRRNGDGAYLYLLSARNTSLNPQELQRQRQLRMLEDLGFKDLTLQSRGPLEPVLPKPRTNQEPGQPDAAPESPPVGWQCPGCTFINKPTRPGCEMCCRARPETYQIPASYQPDEEERARLAGEEEALRQYQQRKQQQQEGNYLQHVQLEQRSLVLNTEPTECPVCYSVLAPGEAVVLRECLHTFCRECLQGTIRNSQEAEVACPFIDSTYSCPGKLLEREIRALLSPEDYQRFLDLGVSIAENRSTLSYHCKTPDCRGWCFFEDDVNEFTCPVCTRVNCLLCKAIHEHMNCREYQDDLALRAQNDVAARQTTEMLKVMLQQGEAMHCPQCRIVVQKKDGCDWIRCTVCHTEICWVTKGPRWGPGGPGDTSGGCRCRVNGIPCHPSCQNCH
4 |  |  | binds | Myc-Sharpin (protein, UniProt Q91WA6 1-380) MSPPAGGAAVAADPASPVVLLAVHAAVRPLGAGQDAEAQPRKLQLIADPERPGRFRLGLLGTEPGAVSLEWPLEAICYTVRGPNQHELQPPPGGPGTFSVHFLDPEEAQQWAALVRDATAEGQNGSGSPAPAPAPAMCPISPPCSSMAQIPKATQPEVDLPQSSGNFKKEELATRLSQAIAGGDEKAAAQVAAVLAQHHVALNVQLMEAWFPPGPIRLQVTVEDATSVLSSSSSAHVSLKIHPHCSIAALQDQVFSEFGFPPAVQRWVIGRCLCMPERSLASYGVSQDGDPAFLYLLSAPREVSGQSLQNSKMDRKLGLFPQSLGLPHDLQPSSSSLPSPSQPGWSCPSCTFINASNRPGCEMCSTQRPCAWDPLAAAST
